Counter-ions that a name gives are not always drawn. For at least one compound, name, drawing or mass did not settle the structure.
Tests used:
[1] = tested on: rat lung oedema induced by Sephadex; test: Sephadex-induced lung oedema model; assay type: in vivo; settings: intratracheal, 24 h post-administration; TA 2005 0.001-0.1, formoterol 0.01-2, budesonide 15-480 nmol/kg
Procedure: The rat lung oedema induced by Sephadex is a model which leads to inflammatory cells infiltration and long-lasting interstitial oedema. […] The test substances were suspended in saline and administered intratracheally suitably diluted in the Sephadex suspension. 24 h post-administration, the animals were sacrificed and the lungs removed and weighted. Percent inhibition of the Sephadex-induced oedema was then determined.

mild asthmatics = settings: single inhaled doses of 6 and 9 μg; cited from earlier work
[2] = tested on: bronchoconstriction induced by acetaldehyde in the guinea pig; test: Acetaldehyde-induced bronchoconstriction, histamine release and plasma extravasation in anaesthetized ventilated guinea pigs; assay type: in vivo; settings: for effect on AcCHO effects (bronchoconstriction, histamine release, plasma extravasation): TA 2005 0.1-10 pmol, formoterol 0.3-30 pmol, budesonide 31.25-500 nmol
Procedure: Pharmacol., 362:184-189, 2000; as well as in a model of acetaldehyde induced bronchoconstriction (Berti et al., Arzneim-Forsch/Drug Res 1994; 44: 323-326).
The protective activity of TA 2005 (0.1 to 10 pmol), formoterol (0.3 to 30 pmol) or budesonide (31.25 to 500 nmol) was determined after intratracheal superfusion alone or in combination.

[3] = tested on: acetylcholine-induced bronchoconstriction in guinea-pigs; test: Acetylcholine-induced bronchoconstriction in guinea pigs (Konzett and Rossler); assay type: in vivo, guinea pig; settings: tiotropium 0.1-30 pmol, TA 2005 0.3-100 pmol, alone
Procedure: Guinea pigs were prepared as originally described by Konzett and Rossler, Naunyn-Schmiedeberg's Arch Pharmacol, 1940; 195: 556-557.
Bronchoconstriction was induced by intravenous administration of acetylcholine (20 μg/kg). The antibronchospastic activity of different concentrations of tiotropium (0.1 to 30 pmol) or TA 2005 (0.3 to 100 pmol), alone or in combination, was investigated.

[4] = tested on: human U-937 derived macrophage cell line; test: LPS-stimulated TNFα, IL-10 and cAMP in U-937 derived macrophages; assay type: cell-based; settings: LPS 1 μg/ml, TA 2005 where added at 10^−10 and 10^−8 M

SMILES | effect on Sephadex-induced lung oedema [1] | bronchodilation (mild asthmatics) | anti-bronchoconstrictive effect after 240 min ([2]; 10 pmol, intratracheal superfusion) | duration of action compared with formoterol ([2]; at all doses selected) | potency relative to formoterol in preventing bronchoconstriction, release of histamine and plasma extravasation ([2]; intratracheal superfusion) | effect on AcCHO effects (bronchoconstriction, histamine release, plasma extravasation) ([2]; intratracheal superfusion) | effect on acetylcholine-induced bronchoconstriction [3] | effect on cAMP content ([4]; 3H-cAMP test system) | effect on IL-10 release ([4]; ELISA) | effect on TNFα release ([4]; ELISA)
COc1ccc(CC(C)NCC(O)c2ccc(O)c3[nH]c(=O)ccc23)cc1 [TA 2005, 8-Hydroxy-5-[(1R)-1-hydroxy-2-[[(1R)-2-(4-methoxyphenyl)-1-methylethyl]amino]ethyl-2(1H)-quinolinone hydrochloride salt] | dose-dependent remission | rapid and long lasting bronchodilation | still fully present | significantly longer duration of action | almost two fold as potent as formoterol | potently antagonised | dose-dependently antagonize |  |  | 
CCCC1O[C@@H]2C[C@H]3[C@@H]4CCC5=CC(=O)C=C[C@]5(C)[C@H]4[C@@H](O)C[C@]3(C)[C@]2(C(=O)CO)O1 (stereo partly drawn) [budesonide] | dose-dependent remission |  |  |  |  | capable to lessen the effect of AcCHO |  | without affecting | inhibited | inhibited

Reference: patent US20070020190A1, “Medicament comprising a highly potent long-lasting beta2-agonist in combination with other active ingredients” (priority 2003, published 2007)
